Counter-ions that a name gives are not always drawn.
Test system: hiPSC-CMs
Experiment: Multi-electrode array (MEA) field potentials of hiPSC-CMs cultured in 2-D or on aligned coaxial patches (3-D) after cardiac drugs
[1] = 3-D cultures, only after 100 nM

Cc1cccc(CCN2CCC(C(=O)c3ccc(NS(C)(=O)=O)cc3)CC2)n1 [E-4031, E4031 hydrochloride]
samples showing beat period irregularity (CiPA) (2-D cultures, 50 nM): 16.67%
FPDc, change vs baseline (2-D cultures, 50 nM and 100 nM): significant increase
beat period, change vs baseline (2-D cultures, 50 nM and 100 nM): significant increase
samples showing beat period irregularity (CiPA) (2-D cultures, 100 nM): 33%
FPDc, change vs baseline [1]: significant increase
beat period, change vs baseline [1]: significant increase
patches showing beat period irregularity (CiPA) (3-D patches, dose not stated): 60%
spike amplitude, change (both 2-D and 3-D cultures, 100 nM): significant decrease
beating frequency (beats per minute) (both 2-D and 3-D cultures, change after treatment): decrease

From US20230226259A1, “NANOFIBER CARDIAC PATCH AND METHODS OF USE THEREOF” (Ohio State Innovation Foundation, priority 2020, published 2023)
